Results deposited as PubChem BioAssay AID1224830 (NIAID, 2016).
Aim: 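Genes whose knock-down alters the TNF-alpha reporter response to LPS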 (primary screen). Cells: human THP-1 monocytic leukaemia cells, TNF dual-luciferase reporter clone, PMA-differentiated to macrophage-like cells. Knock-down reagent: siRNA pool against human genes, 50 nM. Timing: LPS for 4 h, given about 3 days after siRNA transfection. Treatment: bacterial LPS (TLR4 ligand), 10 ng/ml. Read-out: 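TNF firefly reporter luminescence divided by renilla, normalised to the plate median, then turned into a robust z-score for each replicate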. Reading the numbers: TNF reporter robust z-score: higher = stronger TNF reporter response to LPS. Hit rule: 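Each well counts as active if its z-score is over 2.8 or under -1.5; controls are left without a call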.
This is a random part of about 18,000 reagents. Of all reagents, about 2,900 (16%) are marked active. 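Calls are made per well; low scores hint the gene aids the LPS response, high scores that it dampens it.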 A number with no mark means an inactive call. Repeated entries: four replicate wells of each siRNA pool. Reagent sequences are not shown.

gene | TNF reporter robust z-score
SULT1C2 | -0.41
SULT1C2 | -0.09
SULT1C2 | -0.74
SULT1C2 | -0.34
LYRM1 | -0.64
LYRM1 | 0.45
LYRM1 | -0.05
LYRM1 | -0.04
CSRP3 | 0.06
CSRP3 | 0.3
CSRP3 | 0.55
CSRP3 | 0.13
FMNL2 | -1.29
FMNL2 | -1.79 (active)
FMNL2 | -1.36
FMNL2 | -1.11
CDKN1C | 0.03
CDKN1C | 1.15
CDKN1C | -1.02
CDKN1C | -0.96
SMARCD1 | -0.58
SMARCD1 | 0.74
SMARCD1 | 0.08
OR10G9 | 0.45
OR10G9 | 0.67
OR10G9 | 0.4
OR10G9 | 0.48
HPGD | -0.05
HPGD | 1.66
HPGD | 1.1
HPGD | 0.1
TCAF1 | 2
TCAF1 | 1.73
TCAF1 | 0.92
TCAF1 | 0.79
AP1M2 | 0.91
AP1M2 | 0.58
AP1M2 | 0.16
AP1M2 | 1.01
OR2L13 | -0.53
OR2L13 | -1.4
OR2L13 | -0.69
OR2L13 | -0.54
SLC7A10 | 0.78
SLC7A10 | 1.17
SLC7A10 | 0.35

Entries above called active, once more:
gene | TNF reporter robust z-score
FMNL2 | -1.79 (active)
